# Measured values reported in the supplement of paper PMC8728848.
# Some of the results follow.
# Assays:
# Experiment in all cases: glycan array binding signal (z-score within array); higher = stronger binding
# Conditions in all cases: glycan notation: IUPAC condensed, linker removed
# Gal(a1-3)Gal = molecular target: Gal(a1-3)Gal
# How it was run: (§1)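 Glycan array data came from 3228 arrays in the Consortium for Functional Glycomics database, and only arrays with an available protein sequence were kept. Glycan names were put into IUPAC-condensed notation, and columns mapping to the same glycan were averaged. The binding signal is a within-array Z-score, averaged across arrays of one protein sequence run at different concentrations or buffers and across linkers. A negative Z-score can be read as non-binding.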
# Gal(a1-3)Gal(b1-3)GlcNAc = molecular target: Gal(a1-3)Gal(b1-3)GlcNAc
# How it was run: as §1
# [1] = molecular target: Gal(a1-3)Gal(b1-3)GlcNAc(b1-2)Man
# How it was run: as §1
# [2] = molecular target: Gal(a1-3)Gal(b1-3)GlcNAc(b1-2)Man(a1-3)[Gal(a1-3)Gal(b1-3)GlcNAc(b1-2)Man(a1-6)]Man(b1-4)GlcNAc(b1-4)GlcNAc
# How it was run: as §1
# [3] = molecular target: Gal(a1-3)Gal(b1-3)GlcNAc(b1-3)GalNAc
# How it was run: as §1
# [4] = molecular target: Gal(a1-3)Gal(b1-3)GlcNAc(b1-6)GalNAc
# How it was run: as §1
# [5] = molecular target: Gal(a1-3)Gal(b1-3)[Fuc(a1-4)]GlcNAc(b1-2)Man(a1-3)[Gal(a1-3)Gal(b1-3)[Fuc(a1-4)]GlcNAc(b1-2)Man(a1-6)]Man(b1-4)GlcNAc(b1-4)GlcNAc
# How it was run: as §1
# Gal(a1-3)Gal(b1-4)Glc = molecular target: Gal(a1-3)Gal(b1-4)Glc
# How it was run: as §1
# Gal(a1-3)Gal(b1-4)GlcNAc = molecular target: Gal(a1-3)Gal(b1-4)GlcNAc
# How it was run: as §1
# [6] = molecular target: Gal(a1-3)Gal(b1-4)GlcNAc(b1-2)Man
# How it was run: as §1
# [7] = molecular target: Gal(a1-3)Gal(b1-4)GlcNAc(b1-2)Man(a1-3)[Gal(a1-3)Gal(b1-4)GlcNAc(b1-2)Man(a1-6)]Man(b1-4)GlcNAc(b1-4)GlcNAc
# How it was run: as §1
# [8] = molecular target: Gal(a1-3)Gal(b1-4)GlcNAc(b1-3)GalNAc
# How it was run: as §1
# [9] = molecular target: Gal(a1-3)Gal(b1-4)GlcNAc(b1-6)GalNAc
# How it was run: as §1
# [10] = molecular target: Gal(a1-3)Gal(b1-4)[Fuc(a1-3)]GlcNAc
# How it was run: as §1
# [11] = molecular target: Gal(a1-3)Gal(b1-4)[Fuc(a1-3)]GlcNAc(b1-2)Man(a1-3)[Gal(a1-3)Gal(b1-4)[Fuc(a1-3)]GlcNAc(b1-2)Man(a1-6)]Man(b1-4)GlcNAc(b1-4)GlcNAc
# How it was run: as §1
# Gal(a1-3)GalNAc = molecular target: Gal(a1-3)GalNAc
# How it was run: as §1
# [12] = molecular target: Gal(a1-3)[Gal(a1-4)]Gal(b1-4)GlcNAc
# How it was run: as §1
# [13] = molecular target: Gal(a1-4)Gal(b1-3)GlcNAc(b1-2)Man(a1-3)[Gal(a1-4)Gal(b1-3)GlcNAc(b1-2)Man(a1-6)]Man(b1-4)GlcNAc(b1-4)GlcNAc
# How it was run: as §1
# Gal(a1-4)Gal(b1-4)Glc = molecular target: Gal(a1-4)Gal(b1-4)Glc
# How it was run: as §1
# Gal(a1-4)Gal(b1-4)GlcNAc = molecular target: Gal(a1-4)Gal(b1-4)GlcNAc
# How it was run: as §1
# [14] = molecular target: Gal(a1-4)Gal(b1-4)GlcNAc(b1-2)Man(a1-3)[Gal(a1-4)Gal(b1-4)GlcNAc(b1-2)Man(a1-6)]Man(b1-4)GlcNAc(b1-4)GlcNAc
# How it was run: as §1
# [15] = molecular target: Gal(a1-4)Gal(b1-4)GlcNAc(b1-3)Gal(b1-4)Glc
# How it was run: as §1
# Gal(a1-4)GlcNAc = molecular target: Gal(a1-4)GlcNAc
# How it was run: as §1
# Gal(a1-6)Glc = molecular target: Gal(a1-6)Glc
# How it was run: as §1
# Gal(b1-2)Gal = molecular target: Gal(b1-2)Gal
# How it was run: as §1
# Gal(b1-3)Gal = molecular target: Gal(b1-3)Gal
# How it was run: as §1
# Gal(b1-3)Gal(b1-4)GlcNAc = molecular target: Gal(b1-3)Gal(b1-4)GlcNAc
# How it was run: as §1
# Gal(b1-3)GalNAc = molecular target: Gal(b1-3)GalNAc
# How it was run: as §1
# [16] = molecular target: Gal(b1-3)GalNAc(a1-3)[Fuc(a1-2)]Gal(b1-4)Glc
# How it was run: as §1
# [17] = molecular target: Gal(b1-3)GalNAc(a1-3)[Fuc(a1-2)]Gal(b1-4)GlcNAc
# How it was run: as §1
# Gal(b1-3)GalNAc(b1-3)Gal = molecular target: Gal(b1-3)GalNAc(b1-3)Gal
# How it was run: as §1
# [18] = molecular target: Gal(b1-3)GalNAc(b1-3)Gal(a1-4)Gal(b1-4)Glc
# How it was run: as §1
# [19] = molecular target: Gal(b1-3)GalNAc(b1-4)Gal(b1-4)Glc
# How it was run: as §1
# [20] = molecular target: Gal(b1-3)GalNAc(b1-4)[Neu5Ac(a2-3)]Gal(b1-4)Glc
# How it was run: as §1
# Gal(b1-3)GlcNAc = molecular target: Gal(b1-3)GlcNAc
# How it was run: as §1
# [21] = molecular target: Gal(b1-3)GlcNAc(a1-3)Gal(b1-4)GlcNAc
# How it was run: as §1
# [22] = molecular target: Gal(b1-3)GlcNAc(a1-6)Gal(b1-4)GlcNAc
# How it was run: as §1
# Gal(b1-3)GlcNAc(b1-2)Man = molecular target: Gal(b1-3)GlcNAc(b1-2)Man
# How it was run: as §1
binder,measurement,setting,value
Drgal1 (Danio rerio) (protein) MAGVLIQNMSFKVGQTLTITGVPKPDSTNFAINIGHSPEDIALHMNPRFDAHGDQCTIVCNSFQSGSWCEEHRDDNFPFIQDKEFQIKITFTNEEFLVTLPDGSEIHFPNRQGSEKYKYMYFEGEVRIQGVEIK,glycan array binding signal (z-score),Gal(a1-3)Gal,0.192
same,glycan array binding signal (z-score),Gal(a1-3)Gal(b1-3)GlcNAc,-0.76
same,glycan array binding signal (z-score),[1],-0.788
same,glycan array binding signal (z-score),[2],0.05
same,glycan array binding signal (z-score),[3],-0.439
same,glycan array binding signal (z-score),[4],-0.323
same,glycan array binding signal (z-score),[5],0.574
same,glycan array binding signal (z-score),Gal(a1-3)Gal(b1-4)Glc,-0.159
same,glycan array binding signal (z-score),Gal(a1-3)Gal(b1-4)GlcNAc,-0.346
same,glycan array binding signal (z-score),[6],-0.747
same,glycan array binding signal (z-score),[7],1.71
same,glycan array binding signal (z-score),[8],-0.48
same,glycan array binding signal (z-score),[9],-0.195
same,glycan array binding signal (z-score),[10],-0.226
same,glycan array binding signal (z-score),[11],-0.521
same,glycan array binding signal (z-score),Gal(a1-3)GalNAc,1.5
same,glycan array binding signal (z-score),[12],1.28
same,glycan array binding signal (z-score),[13],-0.114
same,glycan array binding signal (z-score),Gal(a1-4)Gal(b1-4)Glc,0.346
same,glycan array binding signal (z-score),Gal(a1-4)Gal(b1-4)GlcNAc,0.682
same,glycan array binding signal (z-score),[14],0.698
same,glycan array binding signal (z-score),[15],-0.121
same,glycan array binding signal (z-score),Gal(a1-4)GlcNAc,-0.487
same,glycan array binding signal (z-score),Gal(a1-6)Glc,-0.869
same,glycan array binding signal (z-score),Gal(b1-2)Gal,-0.068
same,glycan array binding signal (z-score),Gal(b1-3)Gal,-0.116
same,glycan array binding signal (z-score),Gal(b1-3)Gal(b1-4)GlcNAc,-0.653
same,glycan array binding signal (z-score),Gal(b1-3)GalNAc,-0.103
same,glycan array binding signal (z-score),[16],-0.485
same,glycan array binding signal (z-score),[17],-0.213
same,glycan array binding signal (z-score),Gal(b1-3)GalNAc(b1-3)Gal,0.409
same,glycan array binding signal (z-score),[18],-0.251
same,glycan array binding signal (z-score),[19],0.161
same,glycan array binding signal (z-score),[20],0.475
same,glycan array binding signal (z-score),Gal(b1-3)GlcNAc,0.12
same,glycan array binding signal (z-score),[21],-0.134
same,glycan array binding signal (z-score),[22],-0.225
same,glycan array binding signal (z-score),Gal(b1-3)GlcNAc(b1-2)Man,1.85

# 3 records drawn at random from the list so far:
binder,measurement,setting,value
Drgal1 (Danio rerio) (protein) MAGVLIQNMSFKVGQTLTITGVPKPDSTNFAINIGHSPEDIALHMNPRFDAHGDQCTIVCNSFQSGSWCEEHRDDNFPFIQDKEFQIKITFTNEEFLVTLPDGSEIHFPNRQGSEKYKYMYFEGEVRIQGVEIK,glycan array binding signal (z-score),[16],-0.485
same,glycan array binding signal (z-score),[2],0.05
same,glycan array binding signal (z-score),[12],1.28
